No constants are given. Whether binding was seen depends on the method and setting. In cells and extracts the contact can be indirect. Some binding calls cover weakened binding; strength is not graded here. Where a sequence is shown, tags or fusion partners need not be part of it.
T1: HA-tagged EpCAM (TROP1, CD326) (not stated (human or mouse cDNA cloned)) (UniProt P16422)
T1 sequence: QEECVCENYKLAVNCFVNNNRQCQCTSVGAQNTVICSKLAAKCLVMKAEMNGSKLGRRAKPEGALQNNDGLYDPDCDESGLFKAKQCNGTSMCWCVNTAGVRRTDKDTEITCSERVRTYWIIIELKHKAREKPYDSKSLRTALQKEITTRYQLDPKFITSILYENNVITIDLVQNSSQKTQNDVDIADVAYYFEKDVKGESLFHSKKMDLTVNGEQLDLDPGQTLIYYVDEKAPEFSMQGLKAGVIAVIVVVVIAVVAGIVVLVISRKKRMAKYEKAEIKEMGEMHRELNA

Amino acid sequences for entries named in this document (tags omitted).
UniProt O95832: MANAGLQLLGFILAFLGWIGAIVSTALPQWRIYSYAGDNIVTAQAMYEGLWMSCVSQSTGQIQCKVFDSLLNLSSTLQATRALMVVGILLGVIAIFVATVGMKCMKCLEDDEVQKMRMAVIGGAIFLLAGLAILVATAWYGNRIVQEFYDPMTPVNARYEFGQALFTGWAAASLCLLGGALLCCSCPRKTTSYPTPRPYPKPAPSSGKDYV

T2: HA-tagged TROP2 (UniProt Q8BGV3)
T2 sequence: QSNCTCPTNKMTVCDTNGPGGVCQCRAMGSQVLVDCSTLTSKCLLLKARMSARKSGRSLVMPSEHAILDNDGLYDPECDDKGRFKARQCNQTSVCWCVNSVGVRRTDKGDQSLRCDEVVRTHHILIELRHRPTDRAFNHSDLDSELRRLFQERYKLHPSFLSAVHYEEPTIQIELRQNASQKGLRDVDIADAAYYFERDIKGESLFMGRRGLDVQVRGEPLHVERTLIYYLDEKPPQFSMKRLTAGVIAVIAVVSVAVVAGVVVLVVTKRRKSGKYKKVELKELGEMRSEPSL


How the values were obtained:
[1] = biological target: T1, HA-tagged EpCAM (TROP1, CD326) (not stated (human or mouse cDNA cloned)); test: co-IP; HEK 293 cells co-transfected with HA-tagged (EpCAM or TROP2) and FLAG-tagged (claudin) plasmids; lysis in 150 mM NaCl/1% Triton X-100/1 mM EDTA/30 mM NaF/2 mM sodium pyrophosphate/20 mM Tris pH 7.5; precipitated with rat anti-HA (3F10) and Protein G Sepharose at 4 °C; immunoblotted with anti-FLAG or anti-HA
HA-tagged TROP2 = biological target: T2, HA-tagged TROP2; test: as above

binding [1]	binding (HA-tagged TROP2)	Molecule
binds	binds	FLAG-tagged claudin-1 (from UniProt O95832 1-211)
binds	binds	FLAG-tagged claudin-7 (protein, UniProt O95471 1-211) MANSGLQLLGFSMALLGWVGLVACTAIPQWQMSSYAGDNIITAQAMYKGLWMDCVTQSTGMMSCKMYDSVLALSAALQATRALMVVSLVLGFLAMFVATMGMKCTRCGGDDKVKKARIAMGGGIIFIVAGLAALVACSWYGHQIVTDFYNPLIPTNIKYEFGPAIFIGWAGSALVILGGALLSCSCPGNESKAGYRVPRSYPKSNSSKEYV

From publication PMC7465201
